Measurements published in PubChem BioAssay AID1794845 (National Center for Advancing Translational Sciences (NCATS), 2023).
Screen size: about 6,900 compounds; fewer than 10 were called active. Calls follow the shape of the dose curve; as a rule, active = well fitted curve in the direction sought with a large enough effect; inconclusive = small, poorly fitted or top-dose-only effect, or another doubt; inactive = no such curve, though single readings can be large or run the other way. The list shows a part of the results.

The chains behind the UniProt entries cited, without tags or fusion partners. Where a name states a change or a piece, a line headed by the entry shows the natural chain unless it says otherwise.
UniProt C7C422: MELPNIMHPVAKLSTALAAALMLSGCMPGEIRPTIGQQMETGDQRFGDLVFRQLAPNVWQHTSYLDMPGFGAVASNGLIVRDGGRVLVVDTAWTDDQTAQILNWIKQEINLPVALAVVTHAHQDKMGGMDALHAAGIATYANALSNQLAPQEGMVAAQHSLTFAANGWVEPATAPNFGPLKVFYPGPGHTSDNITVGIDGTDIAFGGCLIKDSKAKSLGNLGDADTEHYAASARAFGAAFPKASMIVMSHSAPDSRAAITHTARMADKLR

Each molecule was assayed against Metallo-beta-lactamase type 2 (Klebsiella pneumoniae) (UniProt C7C422) (assay: qHTS to identify inhibitors of the New Delhi Metallo-beta-lactamase (NDM): primary screen against the NCATS Gemini Collection). Conditions: NDM-1 enzyme, meropenem hydrolysis, absorbance 300 nm; at 38.4 µM (top of the series) unless noted.
Summary of the method: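 Meropenem hydrolysis (50 uM final) by 2 nM NDM-1 read as 300 nm absorbance after 30 min, following >30 min compound–enzyme preincubation in HEPES pH 7.0 with 1 uM ZnSO4 and 0.01% Tween20.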
Also: % of control where 0% means no effect.

Activity % (negative = inhibition), inactive:
CCc1c(C)nn(CCNC(=O)c2cc(S(N)(=O)=O)ccc2F)c1C -0.662%
CN1CC2(CCOC2)N(C2CCN(C(=O)C3CCCC3)CC2)C1=O (stereo not given) 7.02%
Cc1cc2ncc(C(=O)N3CCN(c4ncccn4)CC3)cn2n1 4.18% [at 57.5 µM]
O=C(O)[C@@H]1CN(C(=O)CCCc2cn[nH]c2)C[C@H]1c1ccc2c(c1)OCO2 1.54%
COCCOC1CCN(C(C(=O)O)c2ccc(OC)c(F)c2)CC1 (stereo not given) 14.1%
COCCN1C[C@H]2CN(C(=O)C3CCC3)C[C@@]2(C(=O)O)C1 21.1%
Nc1nc(NCc2ccc(Cl)cc2Cl)cc(C2CC(O)C2)n1 (stereo not given) -1.82%
Cn1cc(CCC(=O)N[C@@H]2CCOC[C@H]2Oc2ccc(C(=O)O)cc2)cn1 36.4%
CC(C)(C)CN1CCC2(CC1)COc1ccccc1[S+](=O)([O-])N2 0.46%
CC(C)(C(=O)O)c1cnc(N2CC[C@H](CO)[C@H](O)C2)nc1N1CCOCC1 4.13%
CN1CC[C@H](N(Cc2ccccc2)Cc2ccccc2)C[C@H](O)C1 21%
Cc1ccsc1C(=O)N1CC(Oc2ccccc2-c2nc(-c3cnccn3)no2)C1 0.893%
O=C(CC1CCCC1)N1CCCC(c2nn[nH]n2)C1 (stereo not given) -0.11%
COCCC1(N(C)C)CCN(C(=O)c2ccnn2C)CC1 -1.17%
Cc1cccc(C(=O)N2C[C@H]3OC(=O)N(CCCN4CCOCC4)[C@H]3C2)c1 4.71%
CC(C)c1ccc(N2CC(C(=O)N(C)C3CCSCC3)CC2=O)cc1 (stereo not given) 28.5%
CCC1(C(=O)NCCCN2CCCC2=O)CCCCC(=O)N1 (stereo not given) -7.98%
CO[C@H]1[C@H](NC(=O)c2ccc(C)c(O)c2)c2ccccc2C12CCNCC2 -5.26%
CC(C(N)=O)N1CCn2nc(CCC(=O)N3CCOCC3)cc2C1 (stereo not given) -0.0539%
CCn1cc(CN2CC[C@H](CNC(=O)COC)[C@H](N(C)C)C2)c(C)n1 -1.7%
CN1C(=O)CC(C(=O)O)C12CCN(Cc1cccc(Cn3cccn3)c1)CC2 (stereo not given) 1.24%
CCn1ccc2oc(C)c(C(=O)N3CCN(c4cccc(C)c4C)CC3)c2c1=O 2.21%
O=C1CCC(C(=O)N2CCSCC2)CN1CCc1cccc(F)c1 (stereo not given) 6.53%
O=C(Nc1ccc2c(c1)OCCO2)N1CCCCC1c1nc(CCOCC2CC2)no1 (stereo not given) 3.52%
Cc1ccc(C(=O)N2CCC3(CC2)CC(c2ccccc2)C(=O)N3C)s1 (stereo not given) -0.0173%

As a working copy, part of the list above:
Activity % (negative = inhibition), inactive:
CCn1cc(CN2CC[C@H](CNC(=O)COC)[C@H](N(C)C)C2)c(C)n1 -1.7%
CN1C(=O)CC(C(=O)O)C12CCN(Cc1cccc(Cn3cccn3)c1)CC2 (stereo not given) 1.24%
